Our source for the binding values is US20180282418A1.

These are yes or no findings as the source states them, for the method shown. Tags and fused reporters may be left off the sequences shown.

In assay [1] the target is HA-tagged CLEC14A with the sushi domain deleted. The experiment in a line: far Western blot of HEK293T lysates with MMRN2 protein lysate, non-reduced.
The target of assay [2] is HA-tagged CLEC14A with the C-type lectin domain (CTLD) deleted. The assay is described as above.

B1: full-length human MMRN2 with a His tag overexpressed in HEK293T cells (ligand, not shown: small tags and cut ends)
chain: QASSTSLSDLQSSRTPGVWKAEAEDTGKDPVGRNWCPYPMSKLVTLLALCKTEKFLIHSQQPCPQGAPDCQKVKVMYRMAHKPVYQVKQKVLTSLAWRCCPGYTGPNCEHHDSMAIPEPADPGDSHQEPQDGPVSFKPGHLAAVINEVEVQQEQQEHLLGDLQNDVHRVADSLPGLWKALPGNLTAAVMEANQTGHEFPDRSLEQVLLPHVDTFLQVHFSPIWRSFNQSLHSLTQAIRNLSLDVEANRQAISRVQDSAVARADFQELGAKFEAKVQENTQRVGQLRQDVEDRLHAQHFTLHRSISELQADVDTKLKRLHKAQEAPGTNGSLVLATPGAGARPEPDSLQARLGQLQRNLSELHMTTARREEELQYTLEDMRATLTRHVDEIKELYSESDETFDQISKVERQVEELQVNHTALRELRVILMEKSLIMEENKEEVERQLLELNLTLQHLQGGHADLIKYVKDCNCQKLYLDLDVIREGQRDATRALEETQVSLDERRQLDGSSLQALQNAVDAVSLAVDAHKAEGERARAATSRLRSQVQALDDEVGALKAAAAEARHEVRQLHSAFAALLEDALRHEAVLAALFGEEVLEEMSEQTPGPLPLSYEQIRVALQDAASGLQEQALGWDELAARVTALEQASEPPRPAEHLEPSHDAGREEAATTALAGLARELQSLSNDVKNVGRCCEAEAGAGAASLNASLDGLHNALFATQRSLEQHQRLFHSLFGNFQGLMEANVSLDLGKLQTMLSRKGKKQQKDLEAPRKRDKKEAEPLVDIRVTGPVPGALGAALWEAGSPVAFYASFSEGTAALQTVKFNTTYINIGSSYFPEHGYFRAPERGVYLFAVSVEFGPGPGTGQLVFGGHHRTPVCTTGQGSGSTATVFAMAELQKGERVWFELTQGSITKRSLSGTAFGGFLMFKT
Take B1: the binding entry in assay [1] and in assay [2] was “no binding” throughout.
